Experimental data published in paper PMC10732327.

By UniProt entry, the sequences of proteins in these tests, tags left out.
UniProt Q13535: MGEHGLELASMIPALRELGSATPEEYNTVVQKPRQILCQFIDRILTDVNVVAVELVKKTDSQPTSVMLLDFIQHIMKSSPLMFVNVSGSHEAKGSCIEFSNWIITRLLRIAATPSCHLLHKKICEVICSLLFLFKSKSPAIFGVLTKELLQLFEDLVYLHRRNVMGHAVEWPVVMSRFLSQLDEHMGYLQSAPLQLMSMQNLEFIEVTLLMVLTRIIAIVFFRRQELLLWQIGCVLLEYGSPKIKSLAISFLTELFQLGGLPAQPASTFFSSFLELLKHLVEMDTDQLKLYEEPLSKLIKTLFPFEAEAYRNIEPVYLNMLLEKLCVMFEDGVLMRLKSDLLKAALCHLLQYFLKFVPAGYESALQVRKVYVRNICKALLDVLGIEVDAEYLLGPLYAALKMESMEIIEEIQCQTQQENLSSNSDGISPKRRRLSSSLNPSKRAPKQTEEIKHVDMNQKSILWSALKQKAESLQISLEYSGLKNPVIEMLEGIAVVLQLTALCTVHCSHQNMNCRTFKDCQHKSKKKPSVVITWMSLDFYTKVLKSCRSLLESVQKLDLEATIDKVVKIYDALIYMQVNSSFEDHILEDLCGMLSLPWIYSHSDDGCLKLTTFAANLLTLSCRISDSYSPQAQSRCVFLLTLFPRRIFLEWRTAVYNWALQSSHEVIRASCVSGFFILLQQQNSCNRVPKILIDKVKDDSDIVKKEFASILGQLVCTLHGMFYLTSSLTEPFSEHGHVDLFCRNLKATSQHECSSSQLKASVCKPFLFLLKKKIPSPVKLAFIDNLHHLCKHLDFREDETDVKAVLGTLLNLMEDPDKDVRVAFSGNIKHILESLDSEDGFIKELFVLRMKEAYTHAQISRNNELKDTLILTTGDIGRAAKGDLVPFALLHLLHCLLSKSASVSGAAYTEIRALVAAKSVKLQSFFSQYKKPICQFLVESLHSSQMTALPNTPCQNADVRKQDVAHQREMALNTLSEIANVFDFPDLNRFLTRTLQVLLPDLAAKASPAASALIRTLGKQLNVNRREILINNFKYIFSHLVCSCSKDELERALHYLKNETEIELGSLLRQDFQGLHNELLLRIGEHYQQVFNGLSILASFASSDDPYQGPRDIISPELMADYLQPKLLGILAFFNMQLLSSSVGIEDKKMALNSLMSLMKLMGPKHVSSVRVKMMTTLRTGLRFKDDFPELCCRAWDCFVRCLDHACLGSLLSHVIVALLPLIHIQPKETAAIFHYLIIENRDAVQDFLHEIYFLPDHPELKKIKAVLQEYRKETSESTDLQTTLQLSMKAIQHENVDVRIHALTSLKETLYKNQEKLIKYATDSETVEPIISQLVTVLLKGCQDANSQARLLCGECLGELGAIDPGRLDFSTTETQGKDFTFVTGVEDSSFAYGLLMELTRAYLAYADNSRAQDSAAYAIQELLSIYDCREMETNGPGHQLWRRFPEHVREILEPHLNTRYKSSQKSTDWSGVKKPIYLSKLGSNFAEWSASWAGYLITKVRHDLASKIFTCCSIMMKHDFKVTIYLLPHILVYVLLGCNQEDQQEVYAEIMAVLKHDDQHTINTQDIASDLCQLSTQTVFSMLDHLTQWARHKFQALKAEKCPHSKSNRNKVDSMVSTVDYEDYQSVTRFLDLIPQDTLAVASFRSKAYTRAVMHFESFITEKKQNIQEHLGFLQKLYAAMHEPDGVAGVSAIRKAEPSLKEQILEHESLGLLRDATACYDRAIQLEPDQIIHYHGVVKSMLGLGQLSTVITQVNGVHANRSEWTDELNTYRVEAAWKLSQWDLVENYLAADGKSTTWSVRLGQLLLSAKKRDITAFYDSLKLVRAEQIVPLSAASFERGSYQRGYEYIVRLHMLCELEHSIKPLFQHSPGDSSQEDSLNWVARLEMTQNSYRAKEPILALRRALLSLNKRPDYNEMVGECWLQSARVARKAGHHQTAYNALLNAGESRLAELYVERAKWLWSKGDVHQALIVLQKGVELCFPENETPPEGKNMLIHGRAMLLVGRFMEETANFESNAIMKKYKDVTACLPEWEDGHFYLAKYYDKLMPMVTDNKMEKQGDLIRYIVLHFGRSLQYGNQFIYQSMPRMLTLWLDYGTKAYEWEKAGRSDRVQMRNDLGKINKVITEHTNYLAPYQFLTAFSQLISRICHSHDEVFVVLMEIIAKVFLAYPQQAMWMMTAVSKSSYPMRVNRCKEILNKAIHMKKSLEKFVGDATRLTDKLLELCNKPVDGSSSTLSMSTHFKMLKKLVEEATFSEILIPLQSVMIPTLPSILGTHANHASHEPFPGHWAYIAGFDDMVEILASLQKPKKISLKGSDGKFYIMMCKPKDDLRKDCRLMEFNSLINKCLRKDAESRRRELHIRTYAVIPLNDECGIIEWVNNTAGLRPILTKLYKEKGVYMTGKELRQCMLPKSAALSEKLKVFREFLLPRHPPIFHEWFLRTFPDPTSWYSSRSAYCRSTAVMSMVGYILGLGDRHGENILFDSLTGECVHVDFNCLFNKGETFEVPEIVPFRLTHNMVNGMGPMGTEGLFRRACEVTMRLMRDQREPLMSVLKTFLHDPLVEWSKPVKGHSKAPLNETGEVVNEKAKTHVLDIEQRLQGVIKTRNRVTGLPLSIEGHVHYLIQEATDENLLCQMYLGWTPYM

Biological target: Flag-USP20 expressed in HCC cells (UniProt Q9Y2K6)
Test: affinity purification with mass spectrometry; Flag-USP20 ectopically expressed in HCC cells; immunoprecipitation (IP)-based MS

binding: binds
Substance: ATR, endogenous (from UniProt Q13535 1-2644) (enzyme)

No constants are given. Whether binding was seen depends on the method and setting. In cells and extracts the contact can be indirect. A yes stands for co-enrichment or nearness to the bait. Other partners may have been found.
